Measurements taken from article PMC4510591.
These are yes or no findings as the source states them, for the method shown. In cells and extracts the contact can be indirect. Some binding calls cover weakened binding; strength is not graded here. For some of these results: Sequences can lack the tags named with a protein.

By UniProt entry, the sequences of proteins in these tests, tags left out.
UniProt Q24117: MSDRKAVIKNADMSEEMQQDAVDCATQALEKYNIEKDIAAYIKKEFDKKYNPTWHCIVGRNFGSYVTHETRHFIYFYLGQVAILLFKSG
UniProt P37276: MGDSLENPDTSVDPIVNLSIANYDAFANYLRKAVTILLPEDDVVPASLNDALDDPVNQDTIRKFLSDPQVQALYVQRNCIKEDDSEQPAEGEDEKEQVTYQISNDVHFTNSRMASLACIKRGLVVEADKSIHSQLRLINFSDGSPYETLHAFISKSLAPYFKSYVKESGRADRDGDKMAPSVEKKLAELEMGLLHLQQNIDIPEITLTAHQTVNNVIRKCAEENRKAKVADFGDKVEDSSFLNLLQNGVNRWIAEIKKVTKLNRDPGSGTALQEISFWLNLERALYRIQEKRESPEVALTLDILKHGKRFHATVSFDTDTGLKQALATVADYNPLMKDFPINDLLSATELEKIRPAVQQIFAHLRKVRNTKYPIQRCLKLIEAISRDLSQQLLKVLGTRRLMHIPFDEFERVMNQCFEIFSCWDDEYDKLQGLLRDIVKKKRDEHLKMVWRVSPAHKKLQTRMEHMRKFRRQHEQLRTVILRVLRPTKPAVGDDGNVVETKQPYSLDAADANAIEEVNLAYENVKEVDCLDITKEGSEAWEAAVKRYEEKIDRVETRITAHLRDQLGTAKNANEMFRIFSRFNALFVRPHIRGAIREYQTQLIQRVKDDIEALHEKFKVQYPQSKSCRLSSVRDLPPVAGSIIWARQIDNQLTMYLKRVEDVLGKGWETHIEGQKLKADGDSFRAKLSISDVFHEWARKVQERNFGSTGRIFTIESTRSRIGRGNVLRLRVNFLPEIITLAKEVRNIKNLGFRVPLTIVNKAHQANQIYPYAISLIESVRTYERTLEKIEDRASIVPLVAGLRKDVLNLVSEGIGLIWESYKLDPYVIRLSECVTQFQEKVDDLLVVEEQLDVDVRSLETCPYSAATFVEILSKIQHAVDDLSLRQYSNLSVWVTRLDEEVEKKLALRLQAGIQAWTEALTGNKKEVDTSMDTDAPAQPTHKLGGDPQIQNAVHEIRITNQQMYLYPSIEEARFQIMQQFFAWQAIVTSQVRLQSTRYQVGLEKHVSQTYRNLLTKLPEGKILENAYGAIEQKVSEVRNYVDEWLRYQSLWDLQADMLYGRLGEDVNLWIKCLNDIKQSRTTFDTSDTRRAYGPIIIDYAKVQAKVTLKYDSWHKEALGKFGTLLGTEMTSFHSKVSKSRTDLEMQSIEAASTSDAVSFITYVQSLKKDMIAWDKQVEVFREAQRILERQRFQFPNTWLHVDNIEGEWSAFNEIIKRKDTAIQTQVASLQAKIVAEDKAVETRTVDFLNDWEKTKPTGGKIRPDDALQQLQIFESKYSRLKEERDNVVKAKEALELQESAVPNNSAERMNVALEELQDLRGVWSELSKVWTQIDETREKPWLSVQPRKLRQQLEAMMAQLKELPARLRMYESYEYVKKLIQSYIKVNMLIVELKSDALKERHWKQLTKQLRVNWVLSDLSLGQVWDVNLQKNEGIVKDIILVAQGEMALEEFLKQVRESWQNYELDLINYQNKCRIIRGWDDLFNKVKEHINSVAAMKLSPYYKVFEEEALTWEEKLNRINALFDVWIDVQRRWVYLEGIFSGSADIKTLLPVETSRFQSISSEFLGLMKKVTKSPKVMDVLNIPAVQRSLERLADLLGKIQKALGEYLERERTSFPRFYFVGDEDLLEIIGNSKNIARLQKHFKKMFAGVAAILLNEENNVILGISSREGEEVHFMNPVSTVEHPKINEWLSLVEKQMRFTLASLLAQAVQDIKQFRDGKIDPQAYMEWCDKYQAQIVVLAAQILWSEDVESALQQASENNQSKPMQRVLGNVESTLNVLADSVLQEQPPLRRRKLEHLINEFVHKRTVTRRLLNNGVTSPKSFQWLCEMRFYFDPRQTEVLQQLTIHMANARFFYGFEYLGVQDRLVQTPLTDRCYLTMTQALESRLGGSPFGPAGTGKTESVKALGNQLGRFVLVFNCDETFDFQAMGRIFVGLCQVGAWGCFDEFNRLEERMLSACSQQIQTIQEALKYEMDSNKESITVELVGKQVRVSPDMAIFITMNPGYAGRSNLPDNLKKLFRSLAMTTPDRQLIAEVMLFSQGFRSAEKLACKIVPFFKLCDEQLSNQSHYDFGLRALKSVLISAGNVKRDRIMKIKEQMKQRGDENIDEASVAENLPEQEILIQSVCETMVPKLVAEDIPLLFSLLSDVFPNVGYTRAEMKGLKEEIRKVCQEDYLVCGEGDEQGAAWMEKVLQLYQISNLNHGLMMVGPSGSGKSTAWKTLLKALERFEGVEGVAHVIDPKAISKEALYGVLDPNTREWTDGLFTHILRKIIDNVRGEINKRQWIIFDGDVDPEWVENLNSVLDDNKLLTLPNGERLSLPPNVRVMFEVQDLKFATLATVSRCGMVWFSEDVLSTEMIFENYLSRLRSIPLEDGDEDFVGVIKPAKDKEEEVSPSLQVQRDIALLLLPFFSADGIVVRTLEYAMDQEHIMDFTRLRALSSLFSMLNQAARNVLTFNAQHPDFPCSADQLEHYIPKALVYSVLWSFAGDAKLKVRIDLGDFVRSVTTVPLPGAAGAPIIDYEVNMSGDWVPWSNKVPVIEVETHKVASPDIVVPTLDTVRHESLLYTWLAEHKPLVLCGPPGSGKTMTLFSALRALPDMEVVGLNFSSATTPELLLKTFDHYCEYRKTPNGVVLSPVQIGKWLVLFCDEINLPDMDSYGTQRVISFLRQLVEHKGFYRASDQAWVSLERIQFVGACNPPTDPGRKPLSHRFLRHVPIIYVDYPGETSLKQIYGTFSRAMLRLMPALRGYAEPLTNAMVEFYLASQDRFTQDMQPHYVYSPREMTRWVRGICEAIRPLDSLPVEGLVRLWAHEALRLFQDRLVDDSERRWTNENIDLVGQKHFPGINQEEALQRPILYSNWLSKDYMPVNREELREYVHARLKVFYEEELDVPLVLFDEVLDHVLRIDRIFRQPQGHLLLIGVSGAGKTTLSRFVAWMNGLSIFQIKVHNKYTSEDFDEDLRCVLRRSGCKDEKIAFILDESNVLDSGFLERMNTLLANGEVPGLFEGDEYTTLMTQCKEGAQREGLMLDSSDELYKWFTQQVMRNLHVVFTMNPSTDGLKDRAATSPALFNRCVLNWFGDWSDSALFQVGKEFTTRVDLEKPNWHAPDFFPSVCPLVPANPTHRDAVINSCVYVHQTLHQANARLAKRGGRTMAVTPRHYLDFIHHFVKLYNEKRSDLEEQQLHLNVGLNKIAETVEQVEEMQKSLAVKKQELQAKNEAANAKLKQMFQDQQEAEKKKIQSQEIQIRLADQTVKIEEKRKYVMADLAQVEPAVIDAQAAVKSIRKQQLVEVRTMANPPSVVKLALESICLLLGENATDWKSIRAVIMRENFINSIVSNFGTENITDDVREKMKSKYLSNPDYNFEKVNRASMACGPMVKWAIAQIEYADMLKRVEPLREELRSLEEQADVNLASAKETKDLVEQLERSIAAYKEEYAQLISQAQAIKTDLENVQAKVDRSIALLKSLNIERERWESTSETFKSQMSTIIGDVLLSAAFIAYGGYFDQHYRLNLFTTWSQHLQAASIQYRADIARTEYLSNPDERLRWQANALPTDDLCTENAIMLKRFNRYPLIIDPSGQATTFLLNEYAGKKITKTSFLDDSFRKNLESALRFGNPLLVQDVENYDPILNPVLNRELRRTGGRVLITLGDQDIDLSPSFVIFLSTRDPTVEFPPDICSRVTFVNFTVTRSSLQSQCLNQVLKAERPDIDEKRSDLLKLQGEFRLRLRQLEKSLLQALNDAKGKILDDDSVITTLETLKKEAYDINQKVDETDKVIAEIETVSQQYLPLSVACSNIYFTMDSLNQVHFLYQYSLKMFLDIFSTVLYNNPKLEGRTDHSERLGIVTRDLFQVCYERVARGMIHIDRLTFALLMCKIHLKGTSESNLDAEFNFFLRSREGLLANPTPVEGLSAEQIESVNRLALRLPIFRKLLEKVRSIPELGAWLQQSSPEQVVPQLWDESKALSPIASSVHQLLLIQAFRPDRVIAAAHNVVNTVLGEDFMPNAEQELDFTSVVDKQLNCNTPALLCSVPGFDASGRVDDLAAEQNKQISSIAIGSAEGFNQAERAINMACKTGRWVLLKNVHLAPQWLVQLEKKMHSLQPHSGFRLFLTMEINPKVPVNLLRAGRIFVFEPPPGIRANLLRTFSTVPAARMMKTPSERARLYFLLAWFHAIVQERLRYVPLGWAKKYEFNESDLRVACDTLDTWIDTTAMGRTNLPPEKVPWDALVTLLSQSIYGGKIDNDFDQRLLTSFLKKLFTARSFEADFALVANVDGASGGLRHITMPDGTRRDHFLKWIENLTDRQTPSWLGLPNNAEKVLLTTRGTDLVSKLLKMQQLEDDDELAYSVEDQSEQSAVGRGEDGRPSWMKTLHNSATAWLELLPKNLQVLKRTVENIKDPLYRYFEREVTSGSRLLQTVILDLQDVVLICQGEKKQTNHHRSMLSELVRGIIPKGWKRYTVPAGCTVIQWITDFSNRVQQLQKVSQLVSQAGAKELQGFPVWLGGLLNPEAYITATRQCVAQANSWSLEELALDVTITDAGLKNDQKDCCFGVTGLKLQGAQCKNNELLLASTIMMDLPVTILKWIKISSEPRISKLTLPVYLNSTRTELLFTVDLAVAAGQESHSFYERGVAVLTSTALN

Experiments:
[1] = target: T1, Spindle-F (Spn-F), overexpressed in S2 cells (Drosophila) (UniProt Q9V9Y9); assay: co-IP; transfected S2 cells lysed in 50 mM Tris-HCl pH 7.5, 150 mM NaCl, 0.5% Triton X-100, 10% glycerol, 1 mM EDTA, 1 mM DTT; anti-HA, anti-GFP or anti-myc beads, 2 h at 4°C
T1 sequence: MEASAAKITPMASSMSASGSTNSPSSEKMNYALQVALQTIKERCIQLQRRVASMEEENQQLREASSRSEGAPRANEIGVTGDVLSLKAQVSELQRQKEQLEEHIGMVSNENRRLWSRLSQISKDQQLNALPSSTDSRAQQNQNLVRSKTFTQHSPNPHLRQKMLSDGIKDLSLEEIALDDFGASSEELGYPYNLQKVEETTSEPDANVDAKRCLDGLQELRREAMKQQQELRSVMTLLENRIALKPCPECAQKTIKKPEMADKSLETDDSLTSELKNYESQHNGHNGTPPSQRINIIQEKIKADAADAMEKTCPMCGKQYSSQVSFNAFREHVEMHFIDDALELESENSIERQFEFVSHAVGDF

[2] = target: T2, Spn-F C1 construct (amino acids 191-273) (Drosophila) (UniProt Q9V9Y9); assay: as above
T2 sequence: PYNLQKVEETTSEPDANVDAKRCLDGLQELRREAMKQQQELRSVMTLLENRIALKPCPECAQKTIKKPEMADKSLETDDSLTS

[3] = target: T3, Spindle-F (Spn-F), endogenous in ovary (Drosophila (endogenous in ovary)) (UniProt Q9V9Y9); assay: co-IP; ovary lysates of adult females in lysis buffer; rabbit anti-Spn-F (rabbit anti-GFP as control IgG), 1 h, then Protein G-Sepharose 1 h at 4°C
T3 sequence: T1 sequence

[4] = target: T4, GST-C1 (GST fusion of the Spn-F C1 region) (Drosophila) (UniProt Q9V9Y9); assay: pull-down; 20 µg purified GST-fusion Spn-F fragment added to ovary lysate, overnight at 4°C; Glutathione-Sepharose 4B 2 h; three rapid washes with lysis buffer; blot for DHC; only the target purified
T4 sequence: T2 sequence

| Substance | binding [1] | binding [2] | binding [3] | binding [4] |
| --- | --- | --- | --- | --- |
| Cut up (Ctp)/dynein light chain (LC8), myc-tagged (from UniProt Q24117 1-89) | binds | binds |  |  |
| Cytoplasmic dynein heavy chain (DHC; Dhc64C), endogenous in ovary (from UniProt P37276 1-4639) |  |  | binds | no binding (tested: 20 µg GST-fusion protein) |
